# In the supplement of paper PMC8728848:
# Some of the results follow.
# B1: Epa21 (Candida glabrata) (protein)
# chain: MGSSHHHHHHSSGLVPRGSHMASTPNIESHPQGCSPVDTSGIKPGLKMDLYRFPITPPGTGCWSWDWLTVTPDFPRSGYWKWPKIAEVDGVVGPLHLDSGHPTCDPLTSVLPHGFNYLQSITTTNFTMVLHGYFVPKQSGKYTFEFKADDALLLNLGAGNAFSCCDYNNSQYNQGEYLAYAIWSKNNQTATLYLEKGIYYPIRVFYHNRCCGAYMDVVYYFNDSPIPNRDFSGLLFSIPDSDSCDANI
# Assays:
# Experiment in all cases: glycan array binding signal (z-score within array); higher = stronger binding
# Details in all cases: glycan notation: IUPAC condensed, linker removed
# [1] = biological target: GlcNAc(a1-3)Gal(b1-4)GlcNAc
# How it was run: (§1)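 Glycan array binding is given as a within-array Z-score, which can be read as non-binding when negative. The arrays, 3228 of them, came from the Consortium for Functional Glycomics database and were retained only where the protein sequence was available. Z-scores were averaged across arrays of the same protein sequence at different concentrations or buffers and across linkers.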
# [2] = biological target: GlcNAc(a1-4)Gal(b1-3)GlcNAc
# How it was run: as §1
# [3] = biological target: GlcNAc(a1-4)Gal(b1-4)GalNAc
# How it was run: as §1
# [4] = biological target: GlcNAc(a1-4)Gal(b1-4)GlcNAc
# How it was run: as §1
# [5] = biological target: GlcNAc(a1-4)Gal(b1-4)GlcNAc(b1-3)Gal(b1-4)Glc
# How it was run: as §1
# [6] = biological target: GlcNAc(a1-4)Gal(b1-4)GlcNAc(b1-3)Gal(b1-4)GlcNAc
# How it was run: as §1
# [7] = biological target: GlcNAc(a1-4)Gal(b1-4)GlcNAc(b1-3)Gal(b1-4)GlcNAc(b1-3)Gal(b1-4)GlcNAc
# How it was run: as §1
# [8] = biological target: GlcNAc(a1-4)Gal(b1-4)GlcNAc(b1-3)Gal(b1-4)[Fuc(a1-3)]GlcNAc(b1-3)Gal(b1-4)[Fuc(a1-3)]GlcNAc
# How it was run: as §1
# [9] = biological target: GlcNAc(a1-6)Gal(b1-4)GlcNAc
# How it was run: as §1
# [10] = biological target: GlcNAc(b1-2)Gal(b1-3)GalNAc
# How it was run: as §1
# [11] = biological target: GlcNAc(b1-2)Man(a1-3)[GlcNAc(b1-2)Man(a1-6)]Man(b1-4)GlcNAc(b1-4)GlcNAc
# How it was run: as §1
# [12] = biological target: GlcNAc(b1-2)Man(a1-3)[GlcNAc(b1-2)Man(a1-6)]Man(b1-4)GlcNAc(b1-4)[Fuc(a1-6)]GlcNAc
# How it was run: as §1
# [13] = biological target: GlcNAc(b1-2)Man(a1-3)[GlcNAc(b1-4)][GlcNAc(b1-2)Man(a1-6)]Man(b1-4)GlcNAc(b1-4)GlcNAc
# How it was run: as §1
# [14] = biological target: GlcNAc(b1-2)Man(a1-3)[GlcNAc(b1-4)][GlcNAc(b1-2)Man(a1-6)]Man(b1-4)GlcNAc(b1-4)[Fuc(a1-6)]GlcNAc
# How it was run: as §1
# [15] = biological target: GlcNAc(b1-2)[GlcNAc(b1-4)]Man(a1-3)[GlcNAc(b1-2)Man(a1-6)]Man(b1-4)GlcNAc(b1-4)GlcNAc
# How it was run: as §1
# [16] = biological target: GlcNAc(b1-2)[GlcNAc(b1-4)]Man(a1-3)[GlcNAc(b1-4)][GlcNAc(b1-2)Man(a1-6)]Man(b1-4)GlcNAc(b1-4)GlcNAc
# How it was run: as §1
# [17] = biological target: GlcNAc(b1-2)[GlcNAc(b1-4)]Man(a1-3)[GlcNAc(b1-4)][GlcNAc(b1-2)[GlcNAc(b1-6)]Man(a1-6)]Man(b1-4)GlcNAc(b1-4)GlcNAc
# How it was run: as §1
# [18] = biological target: GlcNAc(b1-2)[GlcNAc(b1-4)]Man(a1-3)[GlcNAc(b1-4)][GlcNAc(b1-2)[GlcNAc(b1-6)]Man(a1-6)]Man(b1-4)GlcNAc(b1-4)[Fuc(a1-6)]GlcNAc
# How it was run: as §1
# [19] = biological target: GlcNAc(b1-2)[GlcNAc(b1-6)]Man(a1-6)[GlcNAc(b1-2)Man(a1-3)]Man(b1-4)GlcNAc(b1-4)GlcNAc
# How it was run: as §1
# [20] = biological target: GlcNAc(b1-2)[GlcNAc(b1-6)]Man(a1-6)[GlcNAc(b1-2)Man(a1-3)]Man(b1-4)GlcNAc(b1-4)[Fuc(a1-6)]GlcNAc
# How it was run: as §1
# [21] = biological target: GlcNAc(b1-2)[GlcNAc(b1-6)]Man(a1-6)[GlcNAc(b1-4)][GlcNAc(b1-2)Man(a1-3)]Man(b1-4)GlcNAc(b1-4)GlcNAc
# How it was run: as §1
# [22] = biological target: GlcNAc(b1-3)Fuc
# How it was run: as §1
# [23] = biological target: GlcNAc(b1-3)Gal
# How it was run: as §1
# [24] = biological target: GlcNAc(b1-3)Gal(b1-3)GalNAc
# How it was run: as §1
# [25] = biological target: GlcNAc(b1-3)Gal(b1-4)Glc
# How it was run: as §1
# [26] = biological target: GlcNAc(b1-3)Gal(b1-4)GlcNAc
# How it was run: as §1
# [27] = biological target: GlcNAc(b1-3)Gal(b1-4)GlcNAc(b1-2)Man(a1-3)[GlcNAc(b1-3)Gal(b1-4)GlcNAc(b1-2)Man(a1-6)]Man(b1-4)GlcNAc(b1-4)GlcNAc
# How it was run: as §1
# [28] = biological target: GlcNAc(b1-3)Gal(b1-4)GlcNAc(b1-2)Man(a1-3)[GlcNAc(b1-3)Gal(b1-4)GlcNAc(b1-2)Man(a1-6)]Man(b1-4)GlcNAc(b1-4)[Fuc(a1-6)]GlcNAc
# How it was run: as §1
# [29] = biological target: GlcNAc(b1-3)Gal(b1-4)GlcNAc(b1-2)[GlcNAc(b1-3)Gal(b1-4)GlcNAc(b1-6)]Man(a1-6)[GlcNAc(b1-3)Gal(b1-4)GlcNAc(b1-2)Man(a1-3)]Man(b1-4)GlcNAc(b1-4)GlcNAc
# How it was run: as §1
# [30] = biological target: GlcNAc(b1-3)Gal(b1-4)GlcNAc(b1-3)Gal(b1-4)GlcNAc
# How it was run: as §1
# [31] = biological target: GlcNAc(b1-3)Gal(b1-4)GlcNAc(b1-3)Gal(b1-4)GlcNAc(b1-2)Man(a1-3)[GlcNAc(b1-3)Gal(b1-4)GlcNAc(b1-3)Gal(b1-4)GlcNAc(b1-2)Man(a1-6)]Man(b1-4)GlcNAc(b1-4)GlcNAc
# How it was run: as §1
# [32] = biological target: GlcNAc(b1-3)Gal(b1-4)GlcNAc(b1-3)Gal(b1-4)GlcNAc(b1-2)Man(a1-3)[GlcNAc(b1-3)Gal(b1-4)GlcNAc(b1-3)Gal(b1-4)GlcNAc(b1-2)Man(a1-6)]Man(b1-4)GlcNAc(b1-4)[Fuc(a1-6)]GlcNAc
# How it was run: as §1
# [33] = biological target: GlcNAc(b1-3)Gal(b1-4)GlcNAc(b1-3)Gal(b1-4)GlcNAc(b1-2)[GlcNAc(b1-3)Gal(b1-4)GlcNAc(b1-3)Gal(b1-4)GlcNAc(b1-6)]Man(a1-6)[GlcNAc(b1-3)Gal(b1-4)GlcNAc(b1-3)Gal(b1-4)GlcNAc(b1-2)Man(a1-3)]Man(b1-4)GlcNAc(b1-4)[Fuc(a1-6)]GlcNAc
# How it was run: as §1
# [34] = biological target: GlcNAc(b1-3)Gal(b1-4)GlcNAc(b1-3)Gal(b1-4)GlcNAc(b1-3)Gal(b1-4)GlcNAc(b1-2)Man(a1-3)[GlcNAc(b1-3)Gal(b1-4)GlcNAc(b1-3)Gal(b1-4)GlcNAc(b1-3)Gal(b1-4)GlcNAc(b1-2)Man(a1-6)]Man(b1-4)GlcNAc(b1-4)GlcNAc
# How it was run: as §1
# [35] = biological target: GlcNAc(b1-3)Gal(b1-4)GlcNAc(b1-3)Gal(b1-4)GlcNAc(b1-3)Gal(b1-4)GlcNAc(b1-2)Man(a1-3)[GlcNAc(b1-3)Gal(b1-4)GlcNAc(b1-3)Gal(b1-4)GlcNAc(b1-3)Gal(b1-4)GlcNAc(b1-2)Man(a1-6)]Man(b1-4)GlcNAc(b1-4)[Fuc(a1-6)]GlcNAc
# How it was run: as §1
# [36] = biological target: GlcNAc(b1-3)Gal(b1-4)GlcNAc(b1-3)Gal(b1-4)GlcNAc(b1-3)Gal(b1-4)GlcNAc(b1-2)[GlcNAc(b1-3)Gal(b1-4)GlcNAc(b1-3)Gal(b1-4)GlcNAc(b1-3)Gal(b1-4)GlcNAc(b1-6)]Man(a1-6)[GlcNAc(b1-3)Gal(b1-4)GlcNAc(b1-3)Gal(b1-4)GlcNAc(b1-3)Gal(b1-4)GlcNAc(b1-2)Man(a1-3)]Man(b1-4)GlcNAc(b1-4)[Fuc(a1-6)]GlcNAc
# How it was run: as §1
# [37] = biological target: GlcNAc(b1-3)Gal(b1-4)GlcNAc(b1-3)Gal(b1-4)GlcNAc(b1-3)Gal(b1-4)GlcNAc(b1-3)Gal(b1-4)GlcNAc(b1-2)Man(a1-3)[GlcNAc(b1-3)Gal(b1-4)GlcNAc(b1-3)Gal(b1-4)GlcNAc(b1-3)Gal(b1-4)GlcNAc(b1-3)Gal(b1-4)GlcNAc(b1-2)Man(a1-6)]Man(b1-4)GlcNAc(b1-4)GlcNAc
# How it was run: as §1
# [38] = biological target: GlcNAc(b1-3)Gal(b1-4)GlcNAc(b1-3)Gal(b1-4)GlcNAc(b1-3)Gal(b1-4)GlcNAc(b1-3)Gal(b1-4)GlcNAc(b1-2)Man(a1-3)[GlcNAc(b1-3)Gal(b1-4)GlcNAc(b1-3)Gal(b1-4)GlcNAc(b1-3)Gal(b1-4)GlcNAc(b1-3)Gal(b1-4)GlcNAc(b1-2)Man(a1-6)]Man(b1-4)GlcNAc(b1-4)[Fuc(a1-6)]GlcNAc
# How it was run: as §1
binder,measurement,setting,value
B1,glycan array binding signal (z-score),[1],-0.82
same,glycan array binding signal (z-score),[2],-0.942
same,glycan array binding signal (z-score),[3],-0.211
same,glycan array binding signal (z-score),[4],-0.35
same,glycan array binding signal (z-score),[5],-0.384
same,glycan array binding signal (z-score),[6],-0.403
same,glycan array binding signal (z-score),[7],-0.911
same,glycan array binding signal (z-score),[8],0.304
same,glycan array binding signal (z-score),[9],-0.825
same,glycan array binding signal (z-score),[10],-0.466
same,glycan array binding signal (z-score),[11],-0.432
same,glycan array binding signal (z-score),[12],0.343
same,glycan array binding signal (z-score),[13],-0.587
same,glycan array binding signal (z-score),[14],-0.612
same,glycan array binding signal (z-score),[15],-0.665
same,glycan array binding signal (z-score),[16],-0.349
same,glycan array binding signal (z-score),[17],-0.585
same,glycan array binding signal (z-score),[18],-0.52
same,glycan array binding signal (z-score),[19],-0.358
same,glycan array binding signal (z-score),[20],-0.735
same,glycan array binding signal (z-score),[21],-0.815
same,glycan array binding signal (z-score),[22],-0.247
same,glycan array binding signal (z-score),[23],-0.833
same,glycan array binding signal (z-score),[24],-0.094
same,glycan array binding signal (z-score),[25],-0.055
same,glycan array binding signal (z-score),[26],-0.589
same,glycan array binding signal (z-score),[27],-0.44
same,glycan array binding signal (z-score),[28],0.136
same,glycan array binding signal (z-score),[29],0.427
same,glycan array binding signal (z-score),[30],-1.1
same,glycan array binding signal (z-score),[31],1.46
same,glycan array binding signal (z-score),[32],1.52
same,glycan array binding signal (z-score),[33],0.575
same,glycan array binding signal (z-score),[34],0.199
same,glycan array binding signal (z-score),[35],1.66
same,glycan array binding signal (z-score),[36],0.289
same,glycan array binding signal (z-score),[37],0.756
same,glycan array binding signal (z-score),[38],0.735

# Two entries from above, with tabs:
binder	measurement	setting	value
B1	glycan array binding signal (z-score)	[1]	-0.82
same	glycan array binding signal (z-score)	[31]	1.46
